Here are results for 35 compounds from PubChem BioAssay AID1487 (National Center for Advancing Translational Sciences (NCATS), 2009).

Each structure is given as a SMILES string. Some of the results follow. Shown are side measurements of this screen, not its main read-out; they come without a call. Compounds called inactive in the main read-out are mostly missing here. Potencies come from curve fits of mixed quality, noted in brackets.

The test is described as follows: qHTS Assay for Modulators of Lamin A Splicing. The conditions noted are these: HeLa LMNA splicing GFP/RFP minigene ratio, 48 h. An outline of the steps: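 S3 HeLa cells stably expressing lamin A-EGFP splicing minigene plus DsRed2, 600 cells/well, 48 h compound exposure at 37C. Laser-scanning cytometry; analysed as GFP (500-530 nm)/RFP (575-640 nm) total intensity ratio; 0.5% DMSO vehicle.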
For orientation: In qHTS, concentration-response curves come from the screen itself.

Where [1] appears, read: measured here: GFP splicing reporter channel.
Where [2] appears, read: measured here: RFP viability control channel.

With `COc1cc(-c2nnc(COc3ccc4cc(Br)ccc4c3)o2)cc(OC)c1OC`, the concentration at half-maximal activity (AC50) (as a rule, the concentration at which the activity in the assay is half-maximal) is, setting by setting: under setting [1], 4.47 µM [rising, full curve, poor fit]; under setting [2], 4.47 µM [rising, full curve, poor fit]. Turning to `CCCCNC(=O)c1onc(CSc2ccccc2CC)c1C(=O)O`, the half-maximal activity concentration (AC50) under setting [1] was 0.0355 µM [falling, partial curve]. In the case of `CCCC1=NN(c2ccc([N+](=O)[O-])cc2)C(=O)/C1=C/N(C)C`, the half-maximal activity concentration (AC50) under setting [1] is 31.6 µM [rising, single point].

As for `CC(=O)OC1COC(N2CCc3cc(Br)c([N+](=O)[O-])cc32)C(OC(C)=O)C1OC(C)=O` (centres undefined), the AC50 under setting [2] is 35.5 µM [rising, single point]. As for `CCc1nc(NCC2CCCO2)c2oc3ccccc3c2n1` (centres undefined), the concentration at half-maximal activity (AC50) under setting [1] was 17.8 µM [rising, single point]. On to `Cc1ccc(-c2csc(NC(=O)Cc3ccc(F)cc3)n2)o1`, for which the AC50 under setting [2] is 35.5 µM [falling, single point]. Same read-out and setting: to `NNc1nc(NCc2ccccc2)nc(N2CCOCC2)n1` belongs 7.08 µM [rising, single point]. On to `CC(C)(C)c1ncc(S(=O)(=O)c2ccc(C(F)(F)F)cn2)c(N)n1`, for which the AC50 under setting [1] is 0.00447 µM [rising, full curve, poor fit].

Take `O=C(NC(NC(=S)Nc1cc(Cl)ccc1Cl)C(Cl)(Cl)Cl)c1ccco1` (centres undefined): the AC50 under setting [1] is 31.6 µM [falling, single point] and the AC50 under setting [2] was 35.5 µM [falling, single point].

With `O=C(NC(=S)Nc1ccc(Br)cn1)c1cccs1`, the AC50 is 1.41 µM [rising, full curve, poor fit] under setting [1] and 1.12 µM [rising, full curve] under setting [2]. In the case of `NC(=O)c1cc(-c2ccccc2)nc(N2CCOCC2)n1`, the concentration at half-maximal activity (AC50) under setting [2] is 14.1 µM [rising, partial curve]. On to `CCNc1ccc(Br)cc(C(=O)/C=C/c2ccc(Cl)cc2Cl)c1=O`, for which the AC50 is, setting by setting: under setting [1], 25.1 µM [falling, single point]; under setting [2], 12.6 µM [falling, single point]. Take `COc1ccc(NC(=O)c2ocnc2C)cc1OC`: the AC50 was 0.708 µM [falling, partial curve] under setting [1] and 0.631 µM [falling, partial curve] under setting [2]. `CC1CCN(C(=O)CCS(=O)(=O)c2cc3c(cc2Cl)NC(=O)CO3)CC1`: under setting [2], the AC50 is 15.8 µM [rising, single point]. On to `Fc1ccc(Nc2nc(SCc3cccc(F)c3)nc3ccccc23)cc1`, for which the AC50 is, setting by setting: under setting [1], 35.5 µM [falling, partial curve, poor fit]; under setting [2], 35.5 µM [falling, partial curve]. Take `COc1ccc(NC(=O)c2nc(C)n(-c3ccc([N+](=O)[O-])cc3)n2)cc1`: the AC50 was 4.47 µM [rising, full curve, poor fit] under setting [1] and 6.31 µM [rising, partial curve] under setting [2]. Take `N#CCCn1c(=O)c(-c2cccc(C#N)c2)nc2cnc(Oc3cccc(Cl)c3)nc21`: under setting [1], the half-maximal activity concentration (AC50) was 7.08 µM [falling, partial curve]. In the case of `COc1ccccc1N1CCN(C(c2cccs2)C(C)NS(=O)(=O)c2ccccc2)CC1` (centres undefined), the concentration at half-maximal activity (AC50) under setting [2] was 35.5 µM [rising, single point]. For `c1ccc(N2CCN(c3c4c(nc5ncnn35)CCC4)CC2)cc1`, the AC50 reads like this: under setting [1], 7.08 µM [rising, partial curve]; under setting [2], 12.6 µM [rising, partial curve]. Turning to `CCN(CC)C(=O)Nc1cnc2ccccc2c1`, the AC50 under setting [2] was 0.00447 µM [falling, full curve, poor fit]. Same read-out and setting: the same measure for `CNC(=S)N/N=C(\C)c1ccc2c(c1)OCO2`: 0.562 µM [rising, partial curve, poor fit]. Regarding `Cc1ccc(-c2csc(N(CCCN3CCOCC3)C(=O)c3ccco3)n2)cc1`, the concentration at half-maximal activity (AC50) under setting [1] is 12.6 µM [rising, single point]. With `COc1ccc(-c2nn(CC(=O)NCCc3ccccc3)c(=S)n2C)cc1`, the half-maximal activity concentration (AC50) was 20 µM [rising, partial curve, poor fit] under setting [1] and 17.8 µM [rising, partial curve] under setting [2]. `CC(=O)Nc1cccc(C(=O)/C=C/c2ccc(F)cc2)c1`: the AC50 under setting [1] is 7.94 µM [falling, partial curve, poor fit].

Consider `CCC1CCC(C(=O)NNC(=O)c2cc(-c3ccco3)[nH]n2)CC1` (centres undefined), for which the AC50 under setting [2] was 3.16 µM [falling, partial curve].

As to `COc1ccc2cc(CN(Cc3cccnc3)S(=O)(=O)c3ccccc3)c(=O)[nH]c2c1`, the AC50 by setting is: under setting [1], 0.00891 µM [rising, full curve, poor fit]; under setting [2], 20 µM [rising, partial curve, poor fit].

On to `O=C(Nc1sc2c(c1C(=O)c1ccc(Cl)cc1)CCCC2)c1cccnc1`, for which the AC50 is, setting by setting: under setting [1], 5.62 µM [rising, partial curve, poor fit]; under setting [2], 5.62 µM [rising, partial curve]. For the compound `Cc1ccc(OCc2ccc(C(=O)Nc3ccc(C(N)=O)cc3)o2)c([N+](=O)[O-])c1`, the half-maximal activity concentration (AC50) is, setting by setting: under setting [1], 35.5 µM [falling, single point]; under setting [2], 35.5 µM [falling, single point]. Regarding `O=C1CCN(c2ncccc2[N+](=O)[O-])CC1`, the AC50 under setting [2] is 3.98 µM [falling, partial curve, poor fit]. As to `CC(=O)Nc1ccc(OCC(O)CN2CCN(c3ccc(Cl)cc3)CC2)cc1` (centres undefined), under setting [2], the half-maximal activity concentration (AC50) was 22.4 µM [rising, single point]. With `CSc1nc2ccc(NS(=O)(=O)c3ccc(Cl)s3)cc2s1`, the AC50 under setting [2] was 15.8 µM [rising, single point]. For the compound `O=c1c2c(-c3ccc(Cl)cc3)csc2ncn1/N=C/c1cccc([N+](=O)[O-])c1O`, the AC50 reads like this: under setting [1], 20 µM [rising, partial curve]; under setting [2], 12.6 µM [rising, partial curve]. `CC1Cc2ccccc2N1CC(=O)NC(=O)NCc1ccco1` (centres undefined): the half-maximal activity concentration (AC50) under setting [2] was 35.5 µM [rising, single point]. Still for that read-out and setting: to `O=C(OCc1cc(Cl)ccc1OC(F)F)c1cccnc1` belongs 2.24 µM [falling, partial curve]. `O=C(/C=C/c1ccc(F)cc1)Nc1cc(S(=O)(=O)N2CCOCC2)ccc1N1CCCC1`: the concentration at half-maximal activity (AC50) by setting is: under setting [1], 35.5 µM [rising, single point]; under setting [2], 28.2 µM [rising, single point].
